No constants are given. Whether binding was seen depends on the method and setting. For part of these data: In cells and extracts the contact can be indirect. Some entries that bind do so weakly or less than the wild type. For part of these data: Tags and fused reporters may be left off the sequences shown.
T1: GST-NudCL2 (human) (UniProt Q8WVJ2)
T1 sequence: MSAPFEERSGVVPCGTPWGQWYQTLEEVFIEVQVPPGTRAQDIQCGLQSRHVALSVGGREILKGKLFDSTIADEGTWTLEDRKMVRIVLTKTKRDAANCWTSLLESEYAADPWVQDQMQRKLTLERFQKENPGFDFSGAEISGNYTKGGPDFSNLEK

Amino acid sequences for entries named in this document (tags omitted).
UniProt Q9UQE7: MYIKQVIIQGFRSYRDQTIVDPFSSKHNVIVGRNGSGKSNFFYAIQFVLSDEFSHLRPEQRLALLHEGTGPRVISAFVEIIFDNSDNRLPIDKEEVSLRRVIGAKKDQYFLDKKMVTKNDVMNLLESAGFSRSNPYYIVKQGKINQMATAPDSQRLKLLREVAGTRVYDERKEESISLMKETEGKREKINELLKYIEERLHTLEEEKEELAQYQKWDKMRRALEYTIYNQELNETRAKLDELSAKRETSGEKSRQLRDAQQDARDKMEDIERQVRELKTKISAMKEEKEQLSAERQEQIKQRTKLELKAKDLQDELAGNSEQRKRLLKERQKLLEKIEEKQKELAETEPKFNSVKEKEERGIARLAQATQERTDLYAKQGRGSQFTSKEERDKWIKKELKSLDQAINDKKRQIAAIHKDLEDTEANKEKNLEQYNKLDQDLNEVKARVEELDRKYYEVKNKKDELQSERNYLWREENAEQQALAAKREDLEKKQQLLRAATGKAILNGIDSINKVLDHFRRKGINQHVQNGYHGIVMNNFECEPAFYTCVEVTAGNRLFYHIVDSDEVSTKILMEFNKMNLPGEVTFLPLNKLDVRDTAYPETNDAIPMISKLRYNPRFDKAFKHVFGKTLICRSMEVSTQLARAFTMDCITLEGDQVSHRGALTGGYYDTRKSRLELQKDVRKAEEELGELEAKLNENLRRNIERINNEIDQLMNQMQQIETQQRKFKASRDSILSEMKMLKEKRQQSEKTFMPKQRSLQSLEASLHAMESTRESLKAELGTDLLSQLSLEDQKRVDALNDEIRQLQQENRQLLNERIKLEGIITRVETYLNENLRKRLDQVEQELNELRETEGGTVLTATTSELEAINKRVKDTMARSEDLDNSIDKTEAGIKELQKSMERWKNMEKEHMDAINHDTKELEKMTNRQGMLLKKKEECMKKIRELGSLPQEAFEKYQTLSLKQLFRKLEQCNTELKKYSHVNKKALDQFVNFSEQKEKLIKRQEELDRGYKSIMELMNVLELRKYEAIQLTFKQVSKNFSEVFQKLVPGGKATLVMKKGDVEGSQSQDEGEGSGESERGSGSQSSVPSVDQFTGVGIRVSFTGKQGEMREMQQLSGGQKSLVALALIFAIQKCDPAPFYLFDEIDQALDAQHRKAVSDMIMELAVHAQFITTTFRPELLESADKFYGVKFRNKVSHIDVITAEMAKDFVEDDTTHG

T2: endogenous NudCL2 (human (endogenous in HeLa)) (UniProt Q8WVJ2)
T2 sequence: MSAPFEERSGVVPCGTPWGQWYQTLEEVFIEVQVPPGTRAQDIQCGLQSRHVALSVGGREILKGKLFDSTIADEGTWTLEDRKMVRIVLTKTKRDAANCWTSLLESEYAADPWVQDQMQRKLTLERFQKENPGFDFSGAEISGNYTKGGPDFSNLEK


Experiments:
GST-NudCL2 (human) [1] = molecular target: T1, GST-NudCL2 (human); assay: pull-down; purified GST or GST-NudCL2 protein incubated with HeLa cell lysates; immunoblotting; only the target purified
[2] = molecular target: T2, endogenous NudCL2 (human (endogenous in HeLa)); assay: co-IP; endogenous proteins; total HeLa lysates (TBSN buffer: 20 mM Tris pH 8.0, 150 mM NaCl, 0.5% Nonidet P-40) immunoprecipitated with anti-NudCL2 or anti-Rad21 antibody or IgG; Western blotting
GST-NudCL2 (human) [3] = molecular target: T1, GST-NudCL2 (human); assay: pull-down; GST or GST-NudCL2 protein incubated with each of the purified His-tagged cohesin subunits from Sf9 cells; Western analysis; both purified

| binding (GST-NudCL2 (human) [1]) | binding [2] | binding (GST-NudCL2 (human) [3]) | Molecule |
| --- | --- | --- | --- |
| binds | binds | – | Smc3, endogenous (from UniProt Q9UQE7 1-1217) |
| – | – | no binding | His-SA2 (protein, UniProt Q8N3U4 1-1231) MIAAPEIPTDFNLLQESETHFSSDTDFEDIEGKNQKQGKGKTCKKGKKGPAEKGKGGNGGGKPPSGPNRMNGHHQQNGVENMMLFEVVKMGKSAMQSVVDDWIESYKHDRDIALLDLINFFIQCSGCKGVVTAEMFRHMQNSEIIRKMTEEFDEDSGDYPLTMAGPQWKKFKSSFCEFIGVLVRQCQYSIIYDEYMMDTVISLLTGLSDSQVRAFRHTSTLAAMKLMTALVNVALNLSINMDNTQRQYEAERNKMIGKRANERLELLLQKRKELQENQDEIENMMNAIFKGVFVHRYRDAIAEIRAICIEEIGIWMKMYSDAFLNDSYLKYVGWTMHDKQGEVRLKCLTALQGLYYNKELNSKLELFTSRFKDRIVSMTLDKEYDVAVQAIKLLTLVLQSSEEVLTAEDCENVYHLVYSAHRPVAVAAGEFLYKKLFSRRDPEEDGMMKRRGRQGPNANLVKTLVFFFLESELHEHAAYLVDSMWDCATELLKDWECMNSLLLEEPLSGEEALTDRQESALIEIMLCTIRQAAECHPPVGRGTGKRVLTAKEKKTQLDDRTKITELFAVALPQLLAKYSVDAEKVTNLLQLPQYFDLEIYTTGRLEKHLDALLRQIRNIVEKHTDTDVLEACSKTYHALCNEEFTIFNRVDISRSQLIDELADKFNRLLEDFLQEGEEPDEDDAYQVLSTLKRITAFHNAHDLSKWDLFACNYKLLKTGIENGDMPEQIVIHALQCTHYVILWQLAKITESSSTKEDLLRLKKQMRVFCQICQHYLTNVNTTVKEQAFTILCDILMIFSHQIMSGGRDMLEPLVYTPDSSLQSELLSFILDHVFIEQDDDNNSADGQQEDEASKIEALHKRRNLLAAFCKLIVYTVVEMNTAADIFKQYMKYYNDYGDIIKETMSKTRQIDKIQCAKTLILSLQQLFNEMIQENGYNFDRSSSTFSGIKELARRFALTFGLDQLKTREAIAMLHKDGIEFAFKEPNPQGESHPPLNLAFLDILSEFSSKLLRQDKRTVYVYLEKFMTFQMSLRREDVWLPLMSYRNSLLAGGDDDTMSVISGISSRGSTVRSKKSKPSTGKRKVVEGMQLSLTEESSSSDSMWLSREQTLHTPVMMQTPQLTSTIMREPKRLRPEDSFMSVYPMQTEHHQTPLDYNRRGTSLMEDDEEPIVEDVMMSSEGRIEDLNEGMDFDTMDIDLPPSKNRRERTELKPDFFDPASIMDESVLGVSMF |

Continued, molecule first:

| Molecule | binding (GST-NudCL2 (human) [1]) | binding [2] | binding (GST-NudCL2 (human) [3]) |
| --- | --- | --- | --- |
| Smc1α, endogenous (protein, UniProt Q14683 1-1233) MGFLKLIEIENFKSYKGRQIIGPFQRFTAIIGPNGSGKSNLMDAISFVLGEKTSNLRVKTLRDLIHGAPVGKPAANRAFVSMVYSEEGAEDRTFARVIVGGSSEYKINNKVVQLHEYSEELEKLGILIKARNFLVFQGAVESIAMKNPKERTALFEEISRSGELAQEYDKRKKEMVKAEEDTQFNYHRKKNIAAERKEAKQEKEEADRYQRLKDEVVRAQVQLQLFKLYHNEVEIEKLNKELASKNKEIEKDKKRMDKVEDELKEKKKELGKMMREQQQIEKEIKEKDSELNQKRPQYIKAKENTSHKIKKLEAAKKSLQNAQKHYKKRKGDMDELEKEMLSVEKARQEFEERMEEESQSQGRDLTLEENQVKKYHRLKEEASKRAATLAQELEKFNRDQKADQDRLDLEERKKVETEAKIKQKLREIEENQKRIEKLEEYITTSKQSLEEQKKLEGELTEEVEMAKRRIDEINKELNQVMEQLGDARIDRQESSRQQRKAEIMESIKRLYPGSVYGRLIDLCQPTQKKYQIAVTKVLGKNMDAIIVDSEKTGRDCIQYIKEQRGEPETFLPLDYLEVKPTDEKLRELKGAKLVIDVIRYEPPHIKKALQYACGNALVCDNVEDARRIAFGGHQRHKTVALDGTLFQKSGVISGGASDLKAKARRWDEKAVDKLKEKKERLTEELKEQMKAKRKEAELRQVQSQAHGLQMRLKYSQSDLEQTKTRHLALNLQEKSKLESELANFGPRINDIKRIIQSREREMKDLKEKMNQVEDEVFEEFCREIGVRNIREFEEEKVKRQNEIAKKRLEFENQKTRLGIQLDFEKNQLKEDQDKVHMWEQTVKKDENEIEKLKKEEQRHMKIIDETMAQLQDLKNQHLAKKSEVNDKNHEMEEIRKKLGGANKEMTHLQKEVTAIETKLEQKRSDRHNLLQACKMQDIKLPLSKGTMDDISQEEGSSQGEDSVSGSQRISSIYAREALIEIDYGDLCEDLKDAQAEEEIKQEMNTLQQKLNEQQSVLQRIAAPNMKAMEKLESVRDKFQETSDEFEAARKRAKKAKQAFEQIKKERFDRFNACFESVATNIDEIYKALSRNSSAQAFLGPENPEEPYLDGINYNCVAPGKRFRPMDNLSGGEKTVAALALLFAIHSYKPAPFFVLDEIDAALDNTNIGKVANYIKEQSTCNFQAIVISLKEEFYTKAESLIGVYPEQGDCVISKVLTFDLTKYPDANPNPNEQ | binds | binds | – |
| His-Rad21 (protein, UniProt O60216 1-631) MFYAHFVLSKRGPLAKIWLAAHWDKKLTKAHVFECNLESSVESIISPKVKMALRTSGHLLLGVVRIYHRKAKYLLADCNEAFIKIKMAFRPGVVDLPEENREAAYNAITLPEEFHDFDQPLPDLDDIDVAQQFSLNQSRVEEITMREEVGNISILQENDFGDFGMDDREIMREGSAFEDDDMLVSTTTSNLLLESEQSTSNLNEKINHLEYEDQYKDDNFGEGNDGGILDDKLISNNDGGIFDDPPALSEAGVMLPEQPAHDDMDEDDNVSMGGPDSPDSVDPVEPMPTMTDQTTLVPNEEEAFALEPIDITVKETKAKRKRKLIVDSVKELDSKTIRAQLSDYSDIVTTLDLAPPTKKLMMWKETGGVEKLFSLPAQPLWNNRLLKLFTRCLTPLVPEDLRKRRKGGEADNLDEFLKEFENPEVPREDQQQQHQQRDVIDEPIIEEPSRLQESVMEASRTNIDESAMPPPPPQGVKRKAGQIDPEPVMPPQQVEQMEIPPVELPPEEPPNICQLIPELELLPEKEKEKEKEKEDDEEEEDEDASGGDQDQEERRWNKRTQQMLHGLQRALAKTGAESISLLELCRNTNRKQAAAKFYSFLVLKKQQAIELTQEEPYSDIIATPGPRFHII | – | – | no binding |

— article PMC6339671, “NudCL2 is an Hsp90 cochaperone to regulate sister chromatid cohesion by stabilizing cohesin subunits” (Cellular and Molecular Life Sciences: CMLS, 2018)
